We go through 2 molecules from article PMC7170509, “Substrate recognition and ATPase activity of the E. coli cysteine/cystine ABC transporter YecSC-FliY” (The Journal of Biological Chemistry, 2020).

Assay [1] has as its target T1, YecC (nucleotide-binding domain of YecSC), N-terminally His10-tagged (E. coli) (UniProt P37774).
T1 sequence: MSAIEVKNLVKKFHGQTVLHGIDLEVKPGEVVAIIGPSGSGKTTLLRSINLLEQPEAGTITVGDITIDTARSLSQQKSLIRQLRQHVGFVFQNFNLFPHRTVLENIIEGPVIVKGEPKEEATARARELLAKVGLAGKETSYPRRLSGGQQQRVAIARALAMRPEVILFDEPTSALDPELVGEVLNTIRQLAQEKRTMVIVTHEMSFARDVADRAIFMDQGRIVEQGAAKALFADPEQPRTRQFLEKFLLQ
Put plainly: co-purification (Ni-NTA affinity chromatography); His10-YecC and tag-free YecS co-expressed in E. coli; membranes extracted with 7-cyclohexyl-1-heptyl-β-D-maltoside, or with 0.5% DM and DDM; Ni-NTA column, Tris-HCl pH 7.5, 0.5 M NaCl, elution with 60–250 mM imidazole.

For assay [2], the target named is FliY, the substrate-binding protein (SBP) of the E. coli YecSC-FliY cysteine/cystine ABC import system (E. coli) (UniProt P0AEM9). Nature of the assay: SEC; purified FliY on size exclusion chromatography; conditions not given; both purified. On the technique in general: SEC sorts molecules by how far they enter the pores of the column.

These are yes or no findings as the source states them, for the method shown. Some binding calls cover weakened binding; strength is not graded here. For some assays here: Tags and fused reporters may be left off the sequences shown.

B1: YecS (transmembrane domain of YecSC), tag-free (protein, UniProt P0AFT2 1-222)
chain: MQESIQLVIDSLPFLLKGAGYTLQLSIGGMFFGLLLGFILALMRLSPIWPVRWLARFYISIFRGTPLIAQLFMIYYGLPQFGIELDPIPSAMIGLSLNTAAYAAETLRAAISSIDKGQWEAAASIGMTPWQTMRRAILPQAARVALPPLSNSFISLVKDTSLAATIQVPELFRQAQLITSRTLEVFTMYLAASLIYWIMATVLSTLQNHFENQLNRQEREPK
Regarding B1, in assay [1], the binding result was “binds”.

B2: FliY, the substrate-binding protein (SBP) of the E. coli YecSC-FliY cysteine/cystine ABC import system (natural protein, UniProt P0AEM9 30-266, looked up)
chain: DEGLLNKVKERGTLLVGLEGTYPPFSFQGDDGKLTGFEVEFAQQLAKHLGVEASLKPTKWDGMLASLDSKRIDVVINQVTISDERKKKYDFSTPYTISGIQALVKKGNEGTIKTADDLKGKKVGVGLGTNYEEWLRQNVQGVDVRTYDDDPTKYQDLRVGRIDAILVDRLAALDLVKKTNDTLAVTGEAFSRQESGVALRKGNEDLLKAVNDAIAEMQKDGTLQALSEKWFGADVTK
On to B2, for which, in assay [2], the binding result was “no binding”.
